The target of one experiment is FLAG-tagged WNT3 (UniProt P56703). Nature of the experiment: co-IP; LN229 glioblastoma cells co-transfected with an HA-tagged construct of a predicted gene and FLAG-tagged WNT3 or FLAG-tagged SHC2; interactions determined by immunoblotting.
For another experiment, the target named is T1, FLAG-tagged SHC2 (UniProt P98077).
T1 sequence: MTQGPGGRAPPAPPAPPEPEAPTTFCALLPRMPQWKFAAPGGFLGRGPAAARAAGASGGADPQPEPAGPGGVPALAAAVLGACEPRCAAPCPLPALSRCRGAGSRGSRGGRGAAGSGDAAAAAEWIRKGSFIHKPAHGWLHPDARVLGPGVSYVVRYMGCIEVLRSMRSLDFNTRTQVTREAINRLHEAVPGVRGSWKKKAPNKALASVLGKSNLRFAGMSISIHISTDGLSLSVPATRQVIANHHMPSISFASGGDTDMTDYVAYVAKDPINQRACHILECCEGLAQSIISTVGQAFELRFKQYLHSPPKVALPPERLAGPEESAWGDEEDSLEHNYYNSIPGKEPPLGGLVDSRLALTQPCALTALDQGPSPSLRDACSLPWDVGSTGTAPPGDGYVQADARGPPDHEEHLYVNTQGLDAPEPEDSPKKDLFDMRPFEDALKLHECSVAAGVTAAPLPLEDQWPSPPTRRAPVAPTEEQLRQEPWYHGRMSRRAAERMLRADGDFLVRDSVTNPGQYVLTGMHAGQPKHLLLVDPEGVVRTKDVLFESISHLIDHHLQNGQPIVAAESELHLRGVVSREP
The experiment is described as above.

Protein sequences, listed by entry. Tags and fused reporters are not part of them. Lines headed by an entry give the natural chain unless they say otherwise; changes in a name come on top. Residues count along the entry.
UniProt P56703, residues 22-355: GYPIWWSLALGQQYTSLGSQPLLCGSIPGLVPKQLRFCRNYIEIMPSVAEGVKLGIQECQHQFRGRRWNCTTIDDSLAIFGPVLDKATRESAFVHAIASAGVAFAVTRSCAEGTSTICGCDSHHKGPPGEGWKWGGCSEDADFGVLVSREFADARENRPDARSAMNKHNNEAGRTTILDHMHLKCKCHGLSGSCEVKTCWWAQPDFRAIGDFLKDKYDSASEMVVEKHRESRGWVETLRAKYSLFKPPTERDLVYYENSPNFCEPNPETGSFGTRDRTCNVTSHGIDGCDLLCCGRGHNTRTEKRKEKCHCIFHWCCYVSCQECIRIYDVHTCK
UniProt P15514: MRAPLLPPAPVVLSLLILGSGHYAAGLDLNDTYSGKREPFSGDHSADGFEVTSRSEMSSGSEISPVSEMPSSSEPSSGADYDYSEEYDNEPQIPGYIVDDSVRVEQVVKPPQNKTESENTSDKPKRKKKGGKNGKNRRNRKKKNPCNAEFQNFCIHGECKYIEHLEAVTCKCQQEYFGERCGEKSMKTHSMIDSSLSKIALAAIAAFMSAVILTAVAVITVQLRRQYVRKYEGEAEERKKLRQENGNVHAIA

No constants are given. Whether binding was seen depends on the method and setting. Binding seen in cells or lysates may run through a third protein. For some assays here: A result given as binding can be weak or reduced; the word gives no strength. For some assays here: Where a sequence is shown, tags or fusion partners need not be part of it.

Turning to HA-tagged AREG (from UniProt P15514), the binding result in the experiment with FLAG-tagged WNT3 is on record as “binds”; with FLAG-tagged SHC2 it was “no binding”.

(Values after paper PMC8610286.)
